{"source": "PubChem BioAssay AID1224830 | NIAID, 2016", "aim": "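Host factors that control LPS-induced TNF expression in human macrophages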 (primary screen)", "cell system": "human THP-1 monocytic leukaemia cells, TNF dual-luciferase reporter clone, PMA-differentiated to macrophage-like cells", "reagents": "siRNA pool against human genes, 50 nM", "duration": "LPS for 4 h, given about 3 days after siRNA transfection", "challenge": "bacterial LPS (TLR4 ligand), 10 ng/ml", "measurement": "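Ratio of firefly to renilla light, scaled to the plate median and expressed as a robust z-score per replicate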", "direction": "TNF reporter robust z-score: higher = stronger TNF reporter response to LPS", "active means": "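Each well counts as active if its z-score is over 2.8 or under -1.5; controls are left without a call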", "note": "Here is an unselected part of about 18,000 reagents tested. Of all reagents, about 2,900 (16%) were called active. 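Calls are made per well; low scores hint the gene aids the LPS response, high scores that it dampens it.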 Repeated entries: four replicate wells of each siRNA pool."}
{"gene":"MOXD1","TNF reporter robust z-score":-0.3,"Outcome":"inactive"}
{"gene":"MOXD1","TNF reporter robust z-score":0.01,"Outcome":"inactive"}
{"gene":"MOXD1","TNF reporter robust z-score":-0.22,"Outcome":"inactive"}
{"gene":"MOXD1","TNF reporter robust z-score":1.11,"Outcome":"inactive"}
{"gene":"CFI","TNF reporter robust z-score":1.35,"Outcome":"inactive"}
{"gene":"CFI","TNF reporter robust z-score":-0.97,"Outcome":"inactive"}
{"gene":"CFI","TNF reporter robust z-score":0.12,"Outcome":"inactive"}
{"gene":"CFI","TNF reporter robust z-score":0.71,"Outcome":"inactive"}
{"gene":"INSL4","TNF reporter robust z-score":-0.66,"Outcome":"inactive"}
{"gene":"INSL4","TNF reporter robust z-score":0.04,"Outcome":"inactive"}
{"gene":"INSL4","TNF reporter robust z-score":0.29,"Outcome":"inactive"}
{"gene":"INSL4","TNF reporter robust z-score":0.11,"Outcome":"inactive"}
{"gene":"LTBP4","TNF reporter robust z-score":-0.77,"Outcome":"inactive"}
{"gene":"LTBP4","TNF reporter robust z-score":-0.28,"Outcome":"inactive"}
{"gene":"LTBP4","TNF reporter robust z-score":-0.2,"Outcome":"inactive"}
{"gene":"LTBP4","TNF reporter robust z-score":0.29,"Outcome":"inactive"}
{"gene":"B3GNT8","TNF reporter robust z-score":1.17,"Outcome":"inactive"}
{"gene":"B3GNT8","TNF reporter robust z-score":2.72,"Outcome":"inactive"}
{"gene":"B3GNT8","TNF reporter robust z-score":2.38,"Outcome":"inactive"}
{"gene":"B3GNT8","TNF reporter robust z-score":3.68,"Outcome":"active"}
{"gene":"CLEC1B","Outcome":"inactive"}
{"gene":"CLEC1B","TNF reporter robust z-score":-0.22,"Outcome":"inactive"}
{"gene":"CLEC1B","TNF reporter robust z-score":0.83,"Outcome":"inactive"}
{"gene":"CLEC1B","TNF reporter robust z-score":0.3,"Outcome":"inactive"}
{"gene":"CLEC1B","TNF reporter robust z-score":0.57,"Outcome":"inactive"}
{"gene":"ITGAM","TNF reporter robust z-score":-1.03,"Outcome":"inactive"}
{"gene":"ITGAM","TNF reporter robust z-score":-0.87,"Outcome":"inactive"}
{"gene":"ITGAM","TNF reporter robust z-score":-1.27,"Outcome":"inactive"}
{"gene":"ITGAM","TNF reporter robust z-score":-0.85,"Outcome":"inactive"}
{"gene":"GABRA6","TNF reporter robust z-score":-1,"Outcome":"inactive"}
{"gene":"GABRA6","TNF reporter robust z-score":-0.91,"Outcome":"inactive"}
{"gene":"GABRA6","TNF reporter robust z-score":-0.52,"Outcome":"inactive"}
{"gene":"GABRA6","TNF reporter robust z-score":-0.51,"Outcome":"inactive"}
{"gene":"RTL5","TNF reporter robust z-score":-0.39,"Outcome":"inactive"}
{"gene":"RTL5","TNF reporter robust z-score":0.07,"Outcome":"inactive"}
{"gene":"RTL5","TNF reporter robust z-score":-0.06,"Outcome":"inactive"}
{"gene":"RTL5","TNF reporter robust z-score":0.41,"Outcome":"inactive"}
{"gene":"TRAPPC4","TNF reporter robust z-score":1.86,"Outcome":"inactive"}
{"gene":"TRAPPC4","TNF reporter robust z-score":1.47,"Outcome":"inactive"}
{"gene":"TRAPPC4","TNF reporter robust z-score":0.99,"Outcome":"inactive"}
{"gene":"TRAPPC4","TNF reporter robust z-score":1.87,"Outcome":"inactive"}
{"gene":"SAMD9","TNF reporter robust z-score":1.97,"Outcome":"inactive"}
{"gene":"SAMD9","TNF reporter robust z-score":0.22,"Outcome":"inactive"}
{"gene":"SAMD9","TNF reporter robust z-score":1.04,"Outcome":"inactive"}
{"gene":"SAMD9","TNF reporter robust z-score":0.46,"Outcome":"inactive"}
{"gene":"RGS21","TNF reporter robust z-score":-0.28,"Outcome":"inactive"}
{"gene":"RGS21","TNF reporter robust z-score":-0.05,"Outcome":"inactive"}
{"gene":"RGS21","TNF reporter robust z-score":-0.68,"Outcome":"inactive"}
{"gene":"RGS21","TNF reporter robust z-score":-0.67,"Outcome":"inactive"}

Copied from above, 4 entries:
{"gene":"CLEC1B","Outcome":"inactive"}
{"gene":"CLEC1B","TNF reporter robust z-score":-0.22,"Outcome":"inactive"}
{"gene":"CLEC1B","TNF reporter robust z-score":0.83,"Outcome":"inactive"}
{"gene":"CLEC1B","TNF reporter robust z-score":0.3,"Outcome":"inactive"}
